Results are given in words; binding and its absence hold for the method and conditions named. In cells and extracts the contact can be indirect. Some entries that bind do so weakly or less than the wild type.

By UniProt entry, the sequences of proteins in these tests, tags left out. Where a name states a change or a piece, a line headed by the entry shows the natural chain unless it says otherwise. Chains listed by the source or under a name are the forms on record and can include a tag or linker. Residues count along the entry.
N-terminal region of CIC-S containing a FLAG tag at the N-terminus (FLAG-CIC-S-N, residues 1-700) (Q924A2-2, form named): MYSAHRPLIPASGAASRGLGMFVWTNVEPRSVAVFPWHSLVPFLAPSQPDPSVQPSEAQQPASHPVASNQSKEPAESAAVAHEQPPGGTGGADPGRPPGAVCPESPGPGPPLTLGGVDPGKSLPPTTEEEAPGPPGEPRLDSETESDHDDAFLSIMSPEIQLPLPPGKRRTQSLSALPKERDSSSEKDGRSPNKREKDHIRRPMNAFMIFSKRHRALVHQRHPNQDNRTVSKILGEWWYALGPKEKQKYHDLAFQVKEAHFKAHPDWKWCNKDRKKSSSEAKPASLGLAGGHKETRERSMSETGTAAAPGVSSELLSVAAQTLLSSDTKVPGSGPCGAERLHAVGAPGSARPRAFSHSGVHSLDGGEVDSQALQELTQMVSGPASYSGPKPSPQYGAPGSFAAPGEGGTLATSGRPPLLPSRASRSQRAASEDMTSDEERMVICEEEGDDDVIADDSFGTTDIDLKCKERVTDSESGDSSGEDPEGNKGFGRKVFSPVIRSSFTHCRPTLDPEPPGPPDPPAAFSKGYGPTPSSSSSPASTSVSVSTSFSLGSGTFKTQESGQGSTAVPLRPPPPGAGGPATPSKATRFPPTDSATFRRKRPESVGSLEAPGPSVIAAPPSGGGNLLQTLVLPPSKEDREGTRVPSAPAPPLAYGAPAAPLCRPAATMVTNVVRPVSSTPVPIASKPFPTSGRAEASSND
C-terminal region of CIC-S containing an HA tag at the C-terminus (CIC-S-C-HA, residue 701 to the end) (Q924A2-2, form named): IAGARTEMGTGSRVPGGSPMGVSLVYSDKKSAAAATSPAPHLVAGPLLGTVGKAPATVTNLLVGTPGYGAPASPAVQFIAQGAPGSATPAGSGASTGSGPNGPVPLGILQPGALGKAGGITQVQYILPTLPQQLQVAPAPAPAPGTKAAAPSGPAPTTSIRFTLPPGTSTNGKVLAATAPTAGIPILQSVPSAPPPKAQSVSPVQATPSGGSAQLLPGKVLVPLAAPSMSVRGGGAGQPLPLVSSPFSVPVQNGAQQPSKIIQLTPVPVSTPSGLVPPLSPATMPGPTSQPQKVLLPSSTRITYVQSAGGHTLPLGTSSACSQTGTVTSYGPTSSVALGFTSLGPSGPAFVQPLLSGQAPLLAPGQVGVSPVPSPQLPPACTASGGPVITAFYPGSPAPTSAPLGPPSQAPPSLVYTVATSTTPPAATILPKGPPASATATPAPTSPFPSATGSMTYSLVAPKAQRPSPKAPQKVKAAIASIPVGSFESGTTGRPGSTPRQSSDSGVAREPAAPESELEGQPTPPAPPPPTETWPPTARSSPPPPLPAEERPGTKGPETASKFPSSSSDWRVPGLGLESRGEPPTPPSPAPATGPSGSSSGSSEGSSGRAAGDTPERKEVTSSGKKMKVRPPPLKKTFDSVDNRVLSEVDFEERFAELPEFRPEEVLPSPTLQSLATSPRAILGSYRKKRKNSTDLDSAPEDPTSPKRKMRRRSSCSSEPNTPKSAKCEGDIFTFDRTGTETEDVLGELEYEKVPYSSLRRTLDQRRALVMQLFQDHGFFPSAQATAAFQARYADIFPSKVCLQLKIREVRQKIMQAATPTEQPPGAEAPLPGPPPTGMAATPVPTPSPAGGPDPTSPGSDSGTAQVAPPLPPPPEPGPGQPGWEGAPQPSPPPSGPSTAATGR

The target of experiment [1] is N-terminal region of CIC-S containing a FLAG tag at the N-terminus (FLAG-CIC-S-N, residues 1-700) (mouse) (UniProt Q924A2). Put plainly: proximity ligation; HEK293T co-transfected with FLAG-CIC-S-N and CIC-S-C-HA, treated with PBS or EGF for 5 min; fixed with 4% PFA, permeabilised with 0.1% Triton X-100; Duolink PLA with anti-FLAG M2 and anti-HA primary antibodies.
Experiment [2] has the same target. In words: co-IP; HEK293T co-transfected with FLAG-CIC-S-N and CIC-S-C-HA; cells fixed (cross-linked) with 1% PFA for 10 min at RT, sonicated in IP buffer (20 mM Tris-HCl pH 8.0, 350 mM KCl, 0.2 mM EDTA); ANTI-FLAG M2 affinity gel overnight at 4 °C; blot for HA; cells untreated or treated with EGF, or EGF and the ERK inhibitor SCH772984.

On to “C-terminal region of CIC-S containing an HA tag at the C-terminus (CIC-S-C-HA, residue 701 to the end) (from UniProt Q924A2-2 701-1604) (domain or fragment)”, for which the binding entry in experiment [1] and in experiment [2] was “binds” throughout.

The values are drawn from PMC9814488.
